Reference: PMC9249791, “Molecular dissection of the glutamine synthetase-GlnR nitrogen regulatory circuitry in Gram-positive bacteria” (Nature Communications, 2022)

What was measured:
[1] = biological target: T1, Sa GlnR full length (UniProt Q53687); test: fluorescence polarization; details: 5 mM Mg2+; FP: 25 mM Tris pH 7.5, 100 mM NaCl, 5 mM MgCl2, 1 nM fluoresceinated DNA; temperature not stated; recombinant protein; residues 1-122; protein details: N-terminal His (pET15b)
T1 sequence (looked up): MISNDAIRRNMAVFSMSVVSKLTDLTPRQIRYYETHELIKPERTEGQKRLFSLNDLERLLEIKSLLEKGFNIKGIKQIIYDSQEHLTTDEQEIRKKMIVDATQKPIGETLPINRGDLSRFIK

[2] = biological target: T2, Sa GlnR(1-87) (UniProt Q53687); test: fluorescence polarization; details: 5 mM Mg2+, FP: 25 mM Tris pH 7.5, 100 mM NaCl, 5 mM MgCl2, 1 nM fluoresceinated DNA, temperature not stated, recombinant protein, residues 1-87
T2 sequence (looked up): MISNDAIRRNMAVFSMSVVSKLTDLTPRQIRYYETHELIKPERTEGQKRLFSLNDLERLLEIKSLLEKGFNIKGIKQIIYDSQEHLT

[3] = biological target: T2, Sa GlnR(1-87); test: X-ray crystallography (2.35 A); details: 0.15 M calcium acetate, pH 6.5; recombinant protein; residues 1-87
[4] = biological target: T3, Lm GlnR(1-87) (UniProt L8DSZ4); test: X-ray crystallography (3.45 A); details: 10 mM MgCl2, pH 6.5; recombinant protein; residues 1-87; protein details: N-terminal His removed by thrombin
T3 sequence (looked up): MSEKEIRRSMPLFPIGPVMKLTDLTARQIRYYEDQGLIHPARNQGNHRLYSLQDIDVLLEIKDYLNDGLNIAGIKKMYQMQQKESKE

Sequence	Kd [1]	Kd ([2]; comparison series with K48 mutants)	Kd [2]	binding result [3]	binding result [4]
CGTGTCAGATAATCTGACACG (double strand) [21-mer glnR operator, fluoresceinated]	75 nM	9.9 nM	9.9 nM		
CGTGTCAGATAATCTGACACG (double strand) [21-mer glnR operator, crystallization]				binds	binds

For at least one entry, the source does not settle the construct or the ends of the probe. Tags and fusion partners may be left off the protein sequences shown.
